Some of these results come from one statement about several compounds together.
Tested on: Mtb H37Rv (ATCC 27294)
Test: In vivo efficacy in acute and chronic mouse TB models
Details: BALB/c mice, four weeks of treatment

## COc1ncnc(Cn2cc(C(=O)NCCF)c3ncccc32)c1C [Compound 3, N-(2-fluoroethyl)-1-((6-methoxy-5-methylpyrimidin-4-yl)methyl)-1H-pyrrolo[3,2-b]pyridine-3-carboxamide]
  reduction of bacterial burden in the lungs: > 1.5 log 10 CFU

— patent US9163020B2, “Azaindole compounds, synthesis thereof, and methods of using the same” (Global Alliance for TB Drug Development, priority 2013, dated 2015)
